The values below come from article PMC10667345.

Chains of the proteins cited; added tags and fusions are not shown.
UniProt P37238: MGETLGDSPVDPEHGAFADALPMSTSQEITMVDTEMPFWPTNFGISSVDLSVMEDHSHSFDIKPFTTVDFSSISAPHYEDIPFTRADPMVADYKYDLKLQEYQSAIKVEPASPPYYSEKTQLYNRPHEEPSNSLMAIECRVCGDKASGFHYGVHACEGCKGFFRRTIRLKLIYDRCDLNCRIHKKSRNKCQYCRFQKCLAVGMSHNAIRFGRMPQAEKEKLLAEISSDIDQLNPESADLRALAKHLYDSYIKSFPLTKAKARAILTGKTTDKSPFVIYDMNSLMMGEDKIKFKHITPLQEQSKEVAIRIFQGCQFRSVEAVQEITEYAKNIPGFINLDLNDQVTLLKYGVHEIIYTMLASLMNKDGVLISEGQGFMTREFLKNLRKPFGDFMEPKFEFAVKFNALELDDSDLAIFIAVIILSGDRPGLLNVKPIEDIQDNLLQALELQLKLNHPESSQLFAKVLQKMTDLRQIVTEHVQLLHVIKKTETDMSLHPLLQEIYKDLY

Results are given in words; binding and its absence hold for the method and conditions named. In cells and extracts the contact can be indirect. Some results given as binding are weak or reduced against the parent protein; the word gives no strength. Where a sequence is shown, tags or fusion partners need not be part of it.

Assay in all cases: co-IP; lysates (NP-40 lysis buffer) of transfected Twist1-OE 3T3-L1 and control cells; anti-GFP mAb agarose or anti-Flag-Tag mAb agarose, 4 °C overnight; blots with anti-GFP and anti-Twist1 antibodies
The target of test [1] is T1, Twist1 coupled with Flag-Tag (Twist1-OE lentivirus) (UniProt P26687).
T1 sequence: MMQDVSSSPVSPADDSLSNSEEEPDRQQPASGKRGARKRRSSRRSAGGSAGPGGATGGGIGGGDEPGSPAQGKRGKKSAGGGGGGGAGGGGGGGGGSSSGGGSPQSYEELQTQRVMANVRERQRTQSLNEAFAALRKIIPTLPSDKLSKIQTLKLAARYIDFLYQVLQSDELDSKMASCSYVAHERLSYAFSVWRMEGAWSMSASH

For a further test, the target named is PPARγ-EYFP (UniProt P37238).
The next test concerns the target T2, RXRα-ECFP (UniProt P28700).
T2 sequence: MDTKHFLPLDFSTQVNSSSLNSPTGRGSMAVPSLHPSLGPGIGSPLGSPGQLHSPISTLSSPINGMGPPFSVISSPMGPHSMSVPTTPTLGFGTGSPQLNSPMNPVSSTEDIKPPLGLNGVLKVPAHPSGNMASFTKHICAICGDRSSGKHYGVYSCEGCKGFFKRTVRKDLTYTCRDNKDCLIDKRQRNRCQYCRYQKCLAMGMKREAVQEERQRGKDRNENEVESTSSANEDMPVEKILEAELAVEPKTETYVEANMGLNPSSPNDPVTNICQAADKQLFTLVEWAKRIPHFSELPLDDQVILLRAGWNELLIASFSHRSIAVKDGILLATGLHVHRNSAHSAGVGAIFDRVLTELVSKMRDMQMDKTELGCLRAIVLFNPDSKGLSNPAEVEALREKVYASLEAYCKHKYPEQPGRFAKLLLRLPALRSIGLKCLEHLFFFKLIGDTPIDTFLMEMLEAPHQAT

In the case of PPARγ-EYFP (from UniProt P37238 1-505), the binding entry in test [1] is on record as “binds”.

B1: RXRα-ECFP (protein, UniProt P28700 1-467)
chain: MDTKHFLPLDFSTQVNSSSLNSPTGRGSMAVPSLHPSLGPGIGSPLGSPGQLHSPISTLSSPINGMGPPFSVISSPMGPHSMSVPTTPTLGFGTGSPQLNSPMNPVSSTEDIKPPLGLNGVLKVPAHPSGNMASFTKHICAICGDRSSGKHYGVYSCEGCKGFFKRTVRKDLTYTCRDNKDCLIDKRQRNRCQYCRYQKCLAMGMKREAVQEERQRGKDRNENEVESTSSANEDMPVEKILEAELAVEPKTETYVEANMGLNPSSPNDPVTNICQAADKQLFTLVEWAKRIPHFSELPLDDQVILLRAGWNELLIASFSHRSIAVKDGILLATGLHVHRNSAHSAGVGAIFDRVLTELVSKMRDMQMDKTELGCLRAIVLFNPDSKGLSNPAEVEALREKVYASLEAYCKHKYPEQPGRFAKLLLRLPALRSIGLKCLEHLFFFKLIGDTPIDTFLMEMLEAPHQAT
For B1, the binding result in test [1] is given as “binds”.

B2: Twist1 coupled with Flag-Tag (Twist1-OE lentivirus) (protein, UniProt P26687 1-206)
chain: MMQDVSSSPVSPADDSLSNSEEEPDRQQPASGKRGARKRRSSRRSAGGSAGPGGATGGGIGGGDEPGSPAQGKRGKKSAGGGGGGGAGGGGGGGGGSSSGGGSPQSYEELQTQRVMANVRERQRTQSLNEAFAALRKIIPTLPSDKLSKIQTLKLAARYIDFLYQVLQSDELDSKMASCSYVAHERLSYAFSVWRMEGAWSMSASH
As for B2, the binding result with PPARγ-EYFP and with RXRα-ECFP was “binds” in each case.
